# This is one part of the list.
# Tests used:
# Assay in all cases: glycan array binding signal (z-score within array); higher = stronger binding
# Conditions in all cases: glycan notation: IUPAC condensed, linker removed
# Kdn(a2-3)Gal(b1-4)Glc = target: Kdn(a2-3)Gal(b1-4)Glc
# Summary of the method: (§1)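 The binding signal is a Z-score computed within each array. Data were drawn from 3228 arrays in the Consortium for Functional Glycomics database, restricted to those with a known protein sequence. Scores were averaged over arrays of the same protein sequence at different concentrations or buffers, and over linkers, and negative values can be taken as non-binding.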
# Kdn(a2-3)Gal(b1-4)GlcNAc = target: Kdn(a2-3)Gal(b1-4)GlcNAc
# Summary of the method: as §1
# [1] = target: Kdn(a2-3)Gal(b1-4)[Fuc(a1-3)]GlcNAc
# Summary of the method: as §1
# Kdn(a2-6)Gal(b1-4)GlcNAc = target: Kdn(a2-6)Gal(b1-4)GlcNAc
# Summary of the method: as §1
# [2] = target: Man(a1-2)Man(a1-2)Man(a1-3)Man
# Summary of the method: as §1
# [3] = target: Man(a1-2)Man(a1-2)Man(a1-6)[Man(a1-3)]Man
# Summary of the method: as §1
# Man(a1-2)Man(a1-3)Man = target: Man(a1-2)Man(a1-3)Man
# Summary of the method: as §1
# [4] = target: Man(a1-2)Man(a1-3)[Man(a1-2)Man(a1-6)]Man
# Summary of the method: as §1
# [5] = target: Man(a1-2)Man(a1-3)[Man(a1-2)Man(a1-6)]Man(a1-6)[Man(a1-2)Man(a1-2)Man(a1-3)]Man
# Summary of the method: as §1
# [6] = target: Man(a1-2)Man(a1-3)[Man(a1-2)Man(a1-6)]Man(a1-6)[Man(a1-2)Man(a1-2)Man(a1-3)]Man(b1-4)GlcNAc(b1-4)GlcNAc
# Summary of the method: as §1
# [7] = target: Man(a1-2)Man(a1-3)[Man(a1-6)]Man(a1-6)[Man(a1-2)Man(a1-3)]Man(b1-4)GlcNAc(b1-4)GlcNAc
# Summary of the method: as §1
# [8] = target: Man(a1-2)Man(a1-6)[Man(a1-3)]Man(a1-6)[Man(a1-2)Man(a1-2)Man(a1-3)]Man
# Summary of the method: as §1
# [9] = target: Man(a1-2)Man(a1-6)[Man(a1-3)]Man(a1-6)[Man(a1-2)Man(a1-2)Man(a1-3)]Man(b1-4)GlcNAc(b1-4)GlcNAc
# Summary of the method: as §1
# Man(a1-3)[Man(a1-6)]Man = target: Man(a1-3)[Man(a1-6)]Man
# Summary of the method: as §1
# [10] = target: Man(a1-3)[Man(a1-6)]Man(a1-6)[Man(a1-2)Man(a1-3)]Man(b1-4)GlcNAc(b1-4)GlcNAc
# Summary of the method: as §1
# [11] = target: Man(a1-3)[Man(a1-6)]Man(a1-6)[Man(a1-3)]Man
# Summary of the method: as §1
# [12] = target: Man(a1-3)[Man(a1-6)]Man(a1-6)[Man(a1-3)]Man(b1-4)GlcNAc(b1-4)GlcNAc
# Summary of the method: as §1
# [13] = target: Man(a1-3)[Man(a1-6)]Man(b1-4)GlcNAc(b1-4)GlcNAc
# Summary of the method: as §1
# [14] = target: Man(a1-3)[Man(a1-6)]Man(b1-4)GlcNAc(b1-4)[Fuc(a1-6)]GlcNAc
# Summary of the method: as §1
# Man(a1-6)Man = target: Man(a1-6)Man
# Summary of the method: as §1
# Man(b1-4)GlcNAc = target: Man(b1-4)GlcNAc
# Summary of the method: as §1
# MurNAc(b1-4)GlcNAc = target: MurNAc(b1-4)GlcNAc
# Summary of the method: as §1
# Neu5Ac(a2-3)Gal = target: Neu5Ac(a2-3)Gal
# Summary of the method: as §1
# [15] = target: Neu5Ac(a2-3)Gal(b1-3)GalNAc
# Summary of the method: as §1
# [16] = target: Neu5Ac(a2-3)Gal(b1-3)GalNAc(b1-3)Gal(a1-4)Gal(b1-4)Glc
# Summary of the method: as §1
# [17] = target: Neu5Ac(a2-3)Gal(b1-3)GalNAc(b1-4)[Neu5Ac(a2-3)]Gal(b1-4)Glc
# Summary of the method: as §1
# [18] = target: Neu5Ac(a2-3)Gal(b1-3)GalNAc(b1-4)[Neu5Ac(a2-8)Neu5Ac(a2-3)]Gal(b1-4)Glc
# Summary of the method: as §1
# [19] = target: Neu5Ac(a2-3)Gal(b1-3)GalNAc6S
# Summary of the method: as §1
# [20] = target: Neu5Ac(a2-3)Gal(b1-3)GlcNAc
# Summary of the method: as §1
# [21] = target: Neu5Ac(a2-3)Gal(b1-3)GlcNAc(b1-2)Man
# Summary of the method: as §1
# [22] = target: Neu5Ac(a2-3)Gal(b1-3)GlcNAc(b1-2)Man(a1-3)[GlcNAc(b1-4)][Neu5Ac(a2-3)Gal(b1-3)GlcNAc(b1-2)Man(a1-6)]Man(b1-4)GlcNAc(b1-4)GlcNAc
# Summary of the method: as §1
# [23] = target: Neu5Ac(a2-3)Gal(b1-3)GlcNAc(b1-2)Man(a1-3)[Neu5Ac(a2-3)Gal(b1-3)GlcNAc(b1-2)Man(a1-6)]Man(b1-4)GlcNAc(b1-4)GlcNAc
# Summary of the method: as §1
# [24] = target: Neu5Ac(a2-3)Gal(b1-3)GlcNAc(b1-3)Gal(b1-3)GlcNAc
# Summary of the method: as §1
# [25] = target: Neu5Ac(a2-3)Gal(b1-3)GlcNAc(b1-3)Gal(b1-4)GlcNAc
# Summary of the method: as §1
# [26] = target: Neu5Ac(a2-3)Gal(b1-3)GlcNAc(b1-3)GalNAc
# Summary of the method: as §1
# [27] = target: Neu5Ac(a2-3)Gal(b1-3)GlcNAc(b1-4)Gal(b1-4)Glc
# Summary of the method: as §1
# [28] = target: Neu5Ac(a2-3)Gal(b1-3)GlcNAc(b1-6)GalNAc
# Summary of the method: as §1
# [29] = target: Neu5Ac(a2-3)Gal(b1-3)GlcNAc6S
# Summary of the method: as §1
binder,measurement,setting,value
B3GalT2 (Rattus norvegicus) (protein) LMLQWRRRHCCFAKMSWNAKRSLFRTHLMGVLSLVFLFAMFLFFNHHDWLPGRPGFKENPVTYTFRGFRSTKTETNQSSLRNIWKEVVPQTLRPQTATNSNNTELSPQGVTGLENTLSANGSIYNEKGTGHPNSYHFKYIINEPEKCQEKSPFLILLIAAEPGQIEARRAIRQTWGNETLAPGIQITRIFLLGISIKLNGYLQHAIQEESIQYHDIIQQEYLDTYYNLTIKTLMGMNWVATYCPHTPYVMKTDSDMFVNTEYLIHKLLKPDLPPRHNYFTGYLMRGYAPNRNKDSKWYMPPDLYPSERYPVFCSGTGYVFSGDLAEKIFKVSLGIRRLHLEDVYVGICLAKLRVDPVPPPNEFVFNHWRVSYSSCKYSHLITSHQFQPSELIKYWNHLQQNKHNACVNAAKEKAGRYRHRKLH,glycan array binding signal (z-score),Kdn(a2-3)Gal(b1-4)Glc,-0.136
same,glycan array binding signal (z-score),Kdn(a2-3)Gal(b1-4)GlcNAc,2.76
same,glycan array binding signal (z-score),[1],-0.377
same,glycan array binding signal (z-score),Kdn(a2-6)Gal(b1-4)GlcNAc,0.561
same,glycan array binding signal (z-score),[2],1.06
same,glycan array binding signal (z-score),[3],-0.096
same,glycan array binding signal (z-score),Man(a1-2)Man(a1-3)Man,0.139
same,glycan array binding signal (z-score),[4],0.778
same,glycan array binding signal (z-score),[5],-0.356
same,glycan array binding signal (z-score),[6],-0.337
same,glycan array binding signal (z-score),[7],-0.577
same,glycan array binding signal (z-score),[8],0.362
same,glycan array binding signal (z-score),[9],-0.59
same,glycan array binding signal (z-score),Man(a1-3)[Man(a1-6)]Man,1.52
same,glycan array binding signal (z-score),[10],0.16
same,glycan array binding signal (z-score),[11],-0.373
same,glycan array binding signal (z-score),[12],0.278
same,glycan array binding signal (z-score),[13],-0.053
same,glycan array binding signal (z-score),[14],-1.04
same,glycan array binding signal (z-score),Man(a1-6)Man,0.301
same,glycan array binding signal (z-score),Man(b1-4)GlcNAc,0.127
same,glycan array binding signal (z-score),MurNAc(b1-4)GlcNAc,0.331
same,glycan array binding signal (z-score),Neu5Ac(a2-3)Gal,-0.317
same,glycan array binding signal (z-score),[15],0.516
same,glycan array binding signal (z-score),[16],-0.318
same,glycan array binding signal (z-score),[17],0.229
same,glycan array binding signal (z-score),[18],-0.777
same,glycan array binding signal (z-score),[19],1.34
same,glycan array binding signal (z-score),[20],1.27
same,glycan array binding signal (z-score),[21],1.06
same,glycan array binding signal (z-score),[22],0.401
same,glycan array binding signal (z-score),[23],-0.013
same,glycan array binding signal (z-score),[24],-0.47
same,glycan array binding signal (z-score),[25],-0.897
same,glycan array binding signal (z-score),[26],0.242
same,glycan array binding signal (z-score),[27],-0.852
same,glycan array binding signal (z-score),[28],-0.836
same,glycan array binding signal (z-score),[29],-0.478

# 2 entries picked at random from the list so far:
binder,measurement,setting,value
B3GalT2 (Rattus norvegicus) (protein) LMLQWRRRHCCFAKMSWNAKRSLFRTHLMGVLSLVFLFAMFLFFNHHDWLPGRPGFKENPVTYTFRGFRSTKTETNQSSLRNIWKEVVPQTLRPQTATNSNNTELSPQGVTGLENTLSANGSIYNEKGTGHPNSYHFKYIINEPEKCQEKSPFLILLIAAEPGQIEARRAIRQTWGNETLAPGIQITRIFLLGISIKLNGYLQHAIQEESIQYHDIIQQEYLDTYYNLTIKTLMGMNWVATYCPHTPYVMKTDSDMFVNTEYLIHKLLKPDLPPRHNYFTGYLMRGYAPNRNKDSKWYMPPDLYPSERYPVFCSGTGYVFSGDLAEKIFKVSLGIRRLHLEDVYVGICLAKLRVDPVPPPNEFVFNHWRVSYSSCKYSHLITSHQFQPSELIKYWNHLQQNKHNACVNAAKEKAGRYRHRKLH,glycan array binding signal (z-score),[26],0.242
same,glycan array binding signal (z-score),MurNAc(b1-4)GlcNAc,0.331

# From the supplement of paper PMC8728848
